Results on 1 molecule are retold here after patent US20180127502A1.

Amino acid sequences for entries named in this document (tags omitted). Residues count along the entry.
UniProt Q15116, residues 25-167: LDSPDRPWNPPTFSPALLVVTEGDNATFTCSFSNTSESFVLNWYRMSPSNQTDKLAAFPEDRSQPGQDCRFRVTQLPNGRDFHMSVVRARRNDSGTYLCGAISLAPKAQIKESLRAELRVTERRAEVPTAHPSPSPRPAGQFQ

The target in experiment [1] is human PD-1 monomer (human) (UniProt Q15116). As to the kind of experiment: ELISA, coated human PD-1 monomer, HRP anti-mouse IgG1 Fc. In general terms: ELISA stands for enzyme-linked immunosorbent assay.
Experiment [2] has the same target. As to the kind of experiment: ELISA on PD-1 monomer (FIG. 1).

These are yes or no findings as the source states them, for the method shown. Some results given as binding are weak or reduced against the parent protein; the word gives no strength. Tags and fused reporters may be left off the sequences shown.

B1: anti-PD-1 scFv-Fc clone 18 (scFv linked to murine Fc) (Fc fusion, not shown: a dimerising Fc or GST)
chain: QSVLTQPPSVSGAPGQRVTISCTGSSSNIGAGYAVNWYQLLPGTAPKLLISTNNNRPSGVPDRFSGSQFGASASLAITGLQAEDEADYYCQSYDSSLSGVIFGGGTKLTVLGGGGGSGGGGSGGGGSEVQLVQSGAEVKKPGASVKVSCKVSGYTLTELSMHWVRQAPGKGLEWMGGFDPEDGETIYAQKFQGRVTMTEDTSTDTAYMELSSLRSEDTAVYYCARAYYGFDQWGQGTLVTVSS
For the molecule B1, the binding result in experiment [1] and in experiment [2] was “binds” in each case.
